{"source": "PubChem BioAssay AID1487", "about": "(National Center for Advancing Translational Sciences (NCATS), 2009)", "test": "qHTS Assay for Modulators of Lamin A Splicing", "conditions": "HeLa LMNA splicing GFP/RFP minigene ratio, 48 h", "in_short": "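S3 HeLa stable clones carrying a lamin A-EGFP splicing minigene plus DsRed2 were seeded at 600 cells/well in Opti-MEM with 2% FBS, pin-dosed and incubated 48 h at 37°C. Acumen cytometry (488 nm) gave the GFP/RFP total-intensity ratio.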", "key": {"[1]": {"conditions": "measured here: RFP viability control channel"}, "[2]": {"conditions": "measured here: GFP splicing reporter channel"}}, "note": "Some of the results follow. Further columns of the screen follow, without active or inactive calls. The list favours compounds with an active or inconclusive main result. Potencies come from curve fits of mixed quality, noted in brackets."}
{"molecule": "COc1cccc(NC(=S)N(CCN(C)C)C(C)c2ccco2)c1", "note": "(stereo not drawn)", "values": [{"measurement": "AC50", "setting": "[1]", "value": "22.4 µM [rising, single point]"}]}
{"molecule": "CCNc1nc(NC(C)C)nc(Oc2ccc(OCCOc3ccc(C)cc3)nn2)n1", "values": [{"measurement": "AC50", "setting": "[2]", "value": "11.2 µM [rising, single point]"}, {"measurement": "AC50", "setting": "[1]", "value": "14.1 µM [rising, single point]"}]}
{"molecule": "COc1ccc([N+](=O)[O-])cc1NC(=O)CSc1nc(C)cc(C)n1", "values": [{"measurement": "AC50", "setting": "[1]", "value": "17.8 µM [rising, single point]"}]}
{"molecule": "Cc1ccc2sc(NNC(=O)C3COc4ccccc4O3)nc2c1C", "note": "(stereo not drawn)", "values": [{"measurement": "AC50", "setting": "[1]", "value": "12.6 µM [rising, partial curve]"}]}
{"molecule": "CN(C)c1ccc(NC(=O)Cn2c(SCc3ccccc3F)nc3cccnc32)cc1", "values": [{"measurement": "AC50", "setting": "[2]", "value": "31.6 µM [rising, partial curve]"}, {"measurement": "AC50", "setting": "[1]", "value": "22.4 µM [rising, partial curve]"}]}
{"molecule": "O=C(Nc1ccon1)c1csc2ccccc12", "values": [{"measurement": "AC50", "setting": "[1]", "value": "11.2 µM [rising, single point]"}]}
{"molecule": "Cc1cc(N2CCN(C(c3ccccc3)c3ccc(Cl)cc3)CC2)n2ncnc2n1", "note": "(stereo not drawn)", "values": [{"measurement": "AC50", "setting": "[1]", "value": "17.8 µM [rising, single point]"}]}
{"molecule": "N=c1n(CCc2ccccc2)c2ccccc2n1Cc1ccccc1F", "values": [{"measurement": "AC50", "setting": "[2]", "value": "35.5 µM [rising, single point]"}, {"measurement": "AC50", "setting": "[1]", "value": "31.6 µM [rising, single point]"}]}
{"molecule": "COc1ccc(-c2nnc(SCC(=O)Nc3ccc(F)cc3)s2)cc1", "values": [{"measurement": "AC50", "setting": "[2]", "value": "15.8 µM [rising, single point]"}]}
{"molecule": "C[C@H]([C@@H](N)C(=O)N[C@@H](C(=O)O)[C@@H]1O[C@H](n2ccc(=O)[nH]c2=O)[C@@H](O)[C@H]1O)[C@@H](O)c1ccc(O)cn1", "values": [{"measurement": "AC50", "setting": "[1]", "value": "0.0398 µM [falling, full curve]"}]}
{"molecule": "CSc1sc(C(=O)NC(=O)NCc2ccncc2)c(C)c1-c1ccon1", "values": [{"measurement": "AC50", "setting": "[2]", "value": "11.2 µM [falling, partial curve, poor fit]"}, {"measurement": "AC50", "setting": "[1]", "value": "10 µM [falling, partial curve, poor fit]"}]}
{"molecule": "O=C(/C=C/c1ccc(OCc2ccccc2)c(OCc2ccccc2)c1)c1cccnc1", "values": [{"measurement": "AC50", "setting": "[1]", "value": "7.94 µM [rising, partial curve, poor fit]"}]}
{"molecule": "COc1ccc(NC(=O)CSc2nncc3ccccc23)cc1", "values": [{"measurement": "AC50", "setting": "[1]", "value": "0.0316 µM [rising, full curve]"}]}
{"molecule": "COc1ccc(-c2csc(NC(=S)NC(=O)c3cccs3)n2)cc1Br", "values": [{"measurement": "AC50", "setting": "[2]", "value": "3.16 µM [falling, partial curve, poor fit]"}, {"measurement": "AC50", "setting": "[1]", "value": "2.82 µM [falling, full curve]"}]}
{"molecule": "CCCNC(=O)Cc1c(OC)ccc2cc(Br)ccc12", "values": [{"measurement": "AC50", "setting": "[2]", "value": "5.62 µM [rising, single point]"}, {"measurement": "AC50", "setting": "[1]", "value": "11.2 µM [rising, partial curve]"}]}
{"molecule": "Cc1ccccc1OCCNc1cc(N2CCNCC2)ccc1[N+](=O)[O-]", "values": [{"measurement": "AC50", "setting": "[1]", "value": "35.5 µM [falling, single point]"}]}
{"molecule": "Cc1ccc(OCc2nnc(SCC(=O)C(C)(C)C)n2Cc2ccco2)cc1", "values": [{"measurement": "AC50", "setting": "[2]", "value": "25.1 µM [rising, single point]"}, {"measurement": "AC50", "setting": "[1]", "value": "17.8 µM [rising, single point]"}]}
{"molecule": "CCc1nc2ccccc2c(C(=O)OCC(=O)NCc2ccc3c(c2)OCO3)c1C", "values": [{"measurement": "AC50", "setting": "[2]", "value": "11.2 µM [rising, partial curve]"}, {"measurement": "AC50", "setting": "[1]", "value": "20 µM [rising, partial curve]"}]}
{"molecule": "CCn1c(/C=C/N(C(C)=O)c2ccccc2)[n+](CCCS(=O)(=O)[O-])c2cc(Cl)c(Cl)cc21", "values": [{"measurement": "AC50", "setting": "[1]", "value": "10 µM [falling, partial curve]"}]}
{"molecule": "CCc1ccccc1NC(=O)COc1cccc2ccc(C)nc12", "values": [{"measurement": "AC50", "setting": "[2]", "value": "15.8 µM [rising, partial curve, poor fit]"}, {"measurement": "AC50", "setting": "[1]", "value": "11.2 µM [rising, partial curve]"}]}
{"molecule": "Cc1ccc(NP(=O)(Nc2ccc(C)cc2)Nc2ccc(C)cc2)cc1", "values": [{"measurement": "AC50", "setting": "[2]", "value": "22.4 µM [falling, single point]"}, {"measurement": "AC50", "setting": "[1]", "value": "35.5 µM [falling, single point]"}]}
{"molecule": "Cc1cccc(NS(=O)(=O)c2cc(OCC(N)=O)c(C)cc2Cl)c1", "values": [{"measurement": "AC50", "setting": "[1]", "value": "15.8 µM [rising, single point]"}]}
{"molecule": "COC(=O)c1ccc(Oc2cc(C)nc(-n3nc(C)cc3C)n2)cc1", "values": [{"measurement": "AC50", "setting": "[1]", "value": "0.355 µM [falling, full curve, poor fit]"}]}
{"molecule": "COc1cc(OC)c(-c2c3cc(O)c(=O)cc-3oc3cc(O)c(O)cc23)cc1OC", "values": [{"measurement": "AC50", "setting": "[2]", "value": "12.6 µM [falling, partial curve]"}, {"measurement": "AC50", "setting": "[1]", "value": "25.1 µM [falling, single point]"}]}
{"molecule": "CCCc1[nH]nc2c1C(C1CCCCC1)C(C#N)=C(N)O2", "note": "(stereo not drawn)", "values": [{"measurement": "AC50", "setting": "[2]", "value": "15.8 µM [falling, single point]"}]}
{"molecule": "Cc1cc(NC(=O)CCN2C(=O)C3C4C=CC(C4)C3C2=O)ccc1Br", "note": "(stereo not drawn)", "values": [{"measurement": "AC50", "setting": "[1]", "value": "0.0316 µM [falling, full curve, poor fit]"}]}
{"molecule": "COc1cc(/C=N/Nc2ccc(C(=O)O)cc2)ccc1O", "values": [{"measurement": "AC50", "setting": "[2]", "value": "0.02 µM [rising, full curve, poor fit]"}]}
{"molecule": "CCCCn1c(/C=C/c2ccco2)nc2ccccc21", "values": [{"measurement": "AC50", "setting": "[2]", "value": "28.2 µM [falling, partial curve, poor fit]"}, {"measurement": "AC50", "setting": "[1]", "value": "28.2 µM [falling, partial curve]"}]}
{"molecule": "CCOc1ccccc1C(=O)N[C@H](C(=O)Nc1ccc(OC)c(S(=O)(=O)N2CCOCC2)c1)C(C)C", "values": [{"measurement": "AC50", "setting": "[1]", "value": "0.0316 µM [falling, full curve, poor fit]"}]}
{"molecule": "COc1cc(C2c3c(-c4cc(Cl)c(C)cc4O)n[nH]c3C(=O)N2Cc2cccnc2)ccc1O", "note": "(stereo not drawn)", "values": [{"measurement": "AC50", "setting": "[2]", "value": "10 µM [rising, single point]"}, {"measurement": "AC50", "setting": "[1]", "value": "11.2 µM [rising, single point]"}]}
{"molecule": "N#C/C(=C\\c1cn[nH]c1-c1ccccc1Br)C(=O)O", "values": [{"measurement": "AC50", "setting": "[1]", "value": "0.00316 µM [falling, full curve, poor fit]"}]}
{"molecule": "CC(C)OC(=O)c1cccc(C(=O)OCc2ccco2)n1", "values": [{"measurement": "AC50", "setting": "[1]", "value": "35.5 µM [rising, single point]"}]}
{"molecule": "COC(=O)c1ccccc1NC(=O)N1c2ccccc2Sc2ccccc21", "values": [{"measurement": "AC50", "setting": "[1]", "value": "35.5 µM [rising, single point]"}]}
{"molecule": "CCC(C)Nc1nnnc2c1sc1nc3c(cc12)COC(C)(C)C3", "note": "(stereo not drawn)", "values": [{"measurement": "AC50", "setting": "[2]", "value": "8.91 µM [falling, partial curve, poor fit]"}]}
{"molecule": "COC(=O)C1=C(C)N(C)C(C)=C(C(=O)OC)C1c1ccc(F)c(Br)c1", "values": [{"measurement": "AC50", "setting": "[1]", "value": "22.4 µM [rising, single point]"}]}
